Data as given in publication doi:10.1101/816959.
No constants are given. Whether binding was seen depends on the method and setting. Tags and fused reporters may be left off the sequences shown.

Target: Caulobacter crescentus Ct-ParB-(His)6 (50 amino acid C-terminally truncated ParB) (Caulobacter crescentus) (UniProt B8GW30)
Assay: crystal structure

B1: Caulobacter crescentus Ct-ParB-(His)6 (50 amino acid C-terminally truncated ParB) (domain or fragment, UniProt B8GW30 11-254)
chain: MSEGRRGLGRGLSALLGEVDAAPAQAPGEQLGGSREAPIEILQRNPDQPRRTFREEDLEDLSNSIREKGVLQPILVRPSPDTAGEYQIVAGERRWRAAQRAGLKTVPIMVRELDDLAVLEIGIIENVQRADLNVLEEALSYKVLMEKFERTQENIAQTIGKSRSHVANTMRLLALPDEVQSYLVSGELTAGHARAIAAAADPVALAKQIIEGGLSVRETEALARKAPNLSAGKSKGGRPPRVKD
B1 was tested, and the binding was “no binding”.
